Results are given in words; binding and its absence hold for the method and conditions named. Binding seen in cells or lysates may run through a third protein. Binding can be weak; no strength is given. Tags and fused reporters may be left off the sequences shown. Each block holds one molecule with its values, some of them ahead of it.
Tests used:
Flag-tagged CPS1 (human) = biological target: T1, Flag-tagged CPS1 (human) (UniProt P31327); experiment: co-IP; Flag-tagged CPS1 or GDH co-expressed in HEK293T cells with HA-tagged GDH or CPS1; Flag bead- or HA bead-purified proteins analysed by western blotting
T1 sequence: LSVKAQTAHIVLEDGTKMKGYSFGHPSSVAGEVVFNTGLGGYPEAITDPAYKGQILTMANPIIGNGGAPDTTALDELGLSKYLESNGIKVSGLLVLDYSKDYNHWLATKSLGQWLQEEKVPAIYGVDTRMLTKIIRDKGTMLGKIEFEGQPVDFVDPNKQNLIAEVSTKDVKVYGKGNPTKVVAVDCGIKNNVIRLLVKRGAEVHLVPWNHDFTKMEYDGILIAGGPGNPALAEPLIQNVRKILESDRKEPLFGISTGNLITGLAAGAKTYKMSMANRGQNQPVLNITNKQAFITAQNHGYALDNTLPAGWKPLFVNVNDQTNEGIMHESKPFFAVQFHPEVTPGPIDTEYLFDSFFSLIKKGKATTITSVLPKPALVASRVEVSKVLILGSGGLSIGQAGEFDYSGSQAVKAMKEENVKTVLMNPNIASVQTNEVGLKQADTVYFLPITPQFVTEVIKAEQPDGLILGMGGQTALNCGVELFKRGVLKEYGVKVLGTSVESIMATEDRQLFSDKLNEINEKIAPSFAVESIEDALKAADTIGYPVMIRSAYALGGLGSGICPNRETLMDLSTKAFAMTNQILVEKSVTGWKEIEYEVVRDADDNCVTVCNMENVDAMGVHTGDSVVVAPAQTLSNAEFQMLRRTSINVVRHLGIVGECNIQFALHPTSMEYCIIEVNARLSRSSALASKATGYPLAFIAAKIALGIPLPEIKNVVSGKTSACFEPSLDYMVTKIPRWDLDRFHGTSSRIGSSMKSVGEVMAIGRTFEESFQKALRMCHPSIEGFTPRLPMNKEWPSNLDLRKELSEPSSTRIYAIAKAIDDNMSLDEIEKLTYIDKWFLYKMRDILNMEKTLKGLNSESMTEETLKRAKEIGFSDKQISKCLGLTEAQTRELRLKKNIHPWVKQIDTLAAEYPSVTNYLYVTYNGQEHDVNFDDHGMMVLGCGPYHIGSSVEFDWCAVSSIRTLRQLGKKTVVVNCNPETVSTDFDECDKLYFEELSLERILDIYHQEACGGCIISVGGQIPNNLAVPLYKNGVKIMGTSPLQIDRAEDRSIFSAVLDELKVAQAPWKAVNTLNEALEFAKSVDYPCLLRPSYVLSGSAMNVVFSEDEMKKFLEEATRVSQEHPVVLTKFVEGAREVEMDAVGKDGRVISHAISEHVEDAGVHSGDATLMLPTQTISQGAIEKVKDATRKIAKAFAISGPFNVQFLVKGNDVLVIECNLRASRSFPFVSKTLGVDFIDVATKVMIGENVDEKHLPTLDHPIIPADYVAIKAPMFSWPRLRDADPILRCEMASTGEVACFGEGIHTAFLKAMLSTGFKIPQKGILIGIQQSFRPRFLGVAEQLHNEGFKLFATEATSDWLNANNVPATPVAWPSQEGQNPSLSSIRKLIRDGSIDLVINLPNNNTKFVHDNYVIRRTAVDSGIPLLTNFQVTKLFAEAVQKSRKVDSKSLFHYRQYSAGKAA

Protein sequences, listed by entry. Tags and fused reporters are not part of them. Lines headed by an entry give the natural chain unless they say otherwise; changes in a name come on top.
UniProt P00367: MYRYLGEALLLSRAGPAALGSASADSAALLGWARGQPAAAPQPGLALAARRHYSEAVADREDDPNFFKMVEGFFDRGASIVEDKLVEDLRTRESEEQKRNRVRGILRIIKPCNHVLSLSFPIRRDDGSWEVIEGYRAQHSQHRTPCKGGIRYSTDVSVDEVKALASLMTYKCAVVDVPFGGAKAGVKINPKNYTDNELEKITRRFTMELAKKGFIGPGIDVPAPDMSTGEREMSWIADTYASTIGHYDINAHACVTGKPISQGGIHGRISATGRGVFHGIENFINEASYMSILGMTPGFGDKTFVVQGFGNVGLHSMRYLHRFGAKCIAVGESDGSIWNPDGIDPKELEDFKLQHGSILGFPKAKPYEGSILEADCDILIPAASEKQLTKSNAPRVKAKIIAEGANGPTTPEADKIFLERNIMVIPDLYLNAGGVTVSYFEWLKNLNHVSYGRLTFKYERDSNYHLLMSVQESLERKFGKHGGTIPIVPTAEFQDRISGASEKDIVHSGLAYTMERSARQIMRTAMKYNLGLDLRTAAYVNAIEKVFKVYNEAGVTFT

Flag-tagged GDH (human) = Flag-tagged GDH (human) (UniProt P00367); experiment: as above
[1] = biological target: GDH co-expressed with SIRT4 (tag not told) (human) (UniProt P00367); experiment: co-IP; GDH and SIRT4 simultaneously expressed in HEK293T cells; co-immunoprecipitation

binding (Flag-tagged CPS1 (human)): binds
Molecule: HA-tagged GDH (from UniProt P00367) (enzyme)

binding (Flag-tagged GDH (human)): binds
B1: HA-tagged CPS1 (enzyme, UniProt P31327 39-1500)
chain: LSVKAQTAHIVLEDGTKMKGYSFGHPSSVAGEVVFNTGLGGYPEAITDPAYKGQILTMANPIIGNGGAPDTTALDELGLSKYLESNGIKVSGLLVLDYSKDYNHWLATKSLGQWLQEEKVPAIYGVDTRMLTKIIRDKGTMLGKIEFEGQPVDFVDPNKQNLIAEVSTKDVKVYGKGNPTKVVAVDCGIKNNVIRLLVKRGAEVHLVPWNHDFTKMEYDGILIAGGPGNPALAEPLIQNVRKILESDRKEPLFGISTGNLITGLAAGAKTYKMSMANRGQNQPVLNITNKQAFITAQNHGYALDNTLPAGWKPLFVNVNDQTNEGIMHESKPFFAVQFHPEVTPGPIDTEYLFDSFFSLIKKGKATTITSVLPKPALVASRVEVSKVLILGSGGLSIGQAGEFDYSGSQAVKAMKEENVKTVLMNPNIASVQTNEVGLKQADTVYFLPITPQFVTEVIKAEQPDGLILGMGGQTALNCGVELFKRGVLKEYGVKVLGTSVESIMATEDRQLFSDKLNEINEKIAPSFAVESIEDALKAADTIGYPVMIRSAYALGGLGSGICPNRETLMDLSTKAFAMTNQILVEKSVTGWKEIEYEVVRDADDNCVTVCNMENVDAMGVHTGDSVVVAPAQTLSNAEFQMLRRTSINVVRHLGIVGECNIQFALHPTSMEYCIIEVNARLSRSSALASKATGYPLAFIAAKIALGIPLPEIKNVVSGKTSACFEPSLDYMVTKIPRWDLDRFHGTSSRIGSSMKSVGEVMAIGRTFEESFQKALRMCHPSIEGFTPRLPMNKEWPSNLDLRKELSEPSSTRIYAIAKAIDDNMSLDEIEKLTYIDKWFLYKMRDILNMEKTLKGLNSESMTEETLKRAKEIGFSDKQISKCLGLTEAQTRELRLKKNIHPWVKQIDTLAAEYPSVTNYLYVTYNGQEHDVNFDDHGMMVLGCGPYHIGSSVEFDWCAVSSIRTLRQLGKKTVVVNCNPETVSTDFDECDKLYFEELSLERILDIYHQEACGGCIISVGGQIPNNLAVPLYKNGVKIMGTSPLQIDRAEDRSIFSAVLDELKVAQAPWKAVNTLNEALEFAKSVDYPCLLRPSYVLSGSAMNVVFSEDEMKKFLEEATRVSQEHPVVLTKFVEGAREVEMDAVGKDGRVISHAISEHVEDAGVHSGDATLMLPTQTISQGAIEKVKDATRKIAKAFAISGPFNVQFLVKGNDVLVIECNLRASRSFPFVSKTLGVDFIDVATKVMIGENVDEKHLPTLDHPIIPADYVAIKAPMFSWPRLRDADPILRCEMASTGEVACFGEGIHTAFLKAMLSTGFKIPQKGILIGIQQSFRPRFLGVAEQLHNEGFKLFATEATSDWLNANNVPATPVAWPSQEGQNPSLSSIRKLIRDGSIDLVINLPNNNTKFVHDNYVIRRTAVDSGIPLLTNFQVTKLFAEAVQKSRKVDSKSLFHYRQYSAGKAA

binding [1]: binds
B2: SIRT4 co-expressed with GDH (tag not told) (enzyme, UniProt Q9Y6E7 29-314)
chain: IGLFVPASPPLDPEKVKELQRFITLSKRLLVMTGAGISTESGIPDYRSEKVGLYARTDRRPIQHGDFVRSAPIRQRYWARNFVGWPQFSSHQPNPAHWALSTWEKLGKLYWLVTQNVDALHTKAGSRRLTELHGCMDRVLCLDCGEQTPRGVLQERFQVLNPTWSAEAHGLAPDGDVFLSEEQVRSFQVPTCVQCGGHLKPDVVFFGDTVNPDKVDFVHKRVKEADSLLVVGSSLQVYSGYRFILTAWEKKLPIAILNIGPTRSDDLACLKLNSRCGELLPLIDPC

— PMC10861483
